Laboratory results published in PMC4477410.
No constants are given. Whether binding was seen depends on the method and setting. In cells and extracts the contact can be indirect. Some results given as binding are weak or reduced against the parent protein; the word gives no strength. For part of these data: Sequences can lack the tags named with a protein. Values belong to the molecule of their own block, whether it stands above or below them.

The chains behind the UniProt entries cited, without tags or fusion partners.
UniProt P12369: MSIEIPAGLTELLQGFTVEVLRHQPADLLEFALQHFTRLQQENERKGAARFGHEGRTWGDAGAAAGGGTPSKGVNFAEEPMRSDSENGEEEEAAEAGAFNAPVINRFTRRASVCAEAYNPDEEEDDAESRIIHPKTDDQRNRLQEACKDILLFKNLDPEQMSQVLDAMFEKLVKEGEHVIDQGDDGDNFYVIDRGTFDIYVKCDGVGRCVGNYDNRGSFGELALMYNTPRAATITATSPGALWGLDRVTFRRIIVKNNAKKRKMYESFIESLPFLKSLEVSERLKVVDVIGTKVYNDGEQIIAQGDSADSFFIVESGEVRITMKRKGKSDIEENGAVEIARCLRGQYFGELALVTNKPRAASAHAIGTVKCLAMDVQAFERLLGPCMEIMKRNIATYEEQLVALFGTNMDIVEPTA

How the values were obtained:
[1] = target: PKA regulatory subunit type II beta (RIIb), Rluc PCA hybrid protein (UniProt P12369); assay: split reporter; Rluc PCA; bait-F[1] and prey-F[2] hybrid constructs transiently over-expressed in HEK293 cells; intact cells in PBS, luminescence with 5 uM benzyl-coelenterazine; RIIb:PKAc also 1-48 h after transfection, with forskolin (50 uM or doses) and in 1536-well format
[2] = target: T1, Tpk2 (yeast PKA catalytic subunit), Rluc PCA fusion (S. cerevisiae) (UniProt P06245); assay: split reporter; Rluc PCA in S. cerevisiae MATa cells grown in galactose medium; about 1 x 10^6 cells, 10 uM benzyl-coelenterazine; with glucose (100 mM) or galactose
T1 sequence: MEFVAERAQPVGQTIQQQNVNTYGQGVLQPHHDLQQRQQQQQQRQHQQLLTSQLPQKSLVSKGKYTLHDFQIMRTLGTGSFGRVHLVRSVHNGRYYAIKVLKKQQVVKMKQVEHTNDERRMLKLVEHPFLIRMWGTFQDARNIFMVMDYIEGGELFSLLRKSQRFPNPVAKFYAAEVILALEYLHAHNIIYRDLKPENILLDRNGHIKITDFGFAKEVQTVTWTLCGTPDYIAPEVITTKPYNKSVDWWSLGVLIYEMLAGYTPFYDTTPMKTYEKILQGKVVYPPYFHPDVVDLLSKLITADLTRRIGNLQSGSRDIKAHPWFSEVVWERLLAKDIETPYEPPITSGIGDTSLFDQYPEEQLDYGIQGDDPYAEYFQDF

[3] = target: T2, Tpk2 (yeast PKA catalytic subunit), Venus PCA fusion (S. cerevisiae) (UniProt P06245); assay: split reporter; Venus-YFP PCA in S. cerevisiae MATa cells grown in low fluorescent galactose medium; fluorescence microscopy
T2 sequence: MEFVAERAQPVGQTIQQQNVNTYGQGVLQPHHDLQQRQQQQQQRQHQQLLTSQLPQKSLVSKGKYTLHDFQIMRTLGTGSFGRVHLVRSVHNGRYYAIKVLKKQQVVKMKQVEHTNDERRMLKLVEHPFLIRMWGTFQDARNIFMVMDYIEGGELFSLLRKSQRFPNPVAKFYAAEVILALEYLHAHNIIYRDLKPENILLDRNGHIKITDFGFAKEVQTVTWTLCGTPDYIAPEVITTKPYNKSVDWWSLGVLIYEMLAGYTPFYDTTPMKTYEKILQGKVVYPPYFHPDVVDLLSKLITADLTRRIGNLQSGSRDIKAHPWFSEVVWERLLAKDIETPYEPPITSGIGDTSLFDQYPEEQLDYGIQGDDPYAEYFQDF

binding [1]: no binding
Molecule: PKA regulatory subunit type I alpha (RIa), Rluc PCA hybrid protein (from UniProt P10644-1 1-381)

binding [2]: binds
B1: Bcy1 (yeast PKA regulatory subunit), Rluc PCA fusion (protein, UniProt P07278 1-416)
chain: MVSSLPKESQAELQLFQNEINAANPSDFLQFSANYFNKRLEQQRAFLKAREPEFKAKNIVLFPEPEESFSRPQSAQSQSRSRSSVMFKSPFVNEDPHSNVFKSGFNLDPHEQDTHQQAQEEQQHTREKTSTPPLPMHFNAQRRTSVSGETLQPNNFDDWTPDHYKEKSEQQLQRLEKSIRNNFLFNKLDSDSKRLVINCLEEKSVPKGATIIKQGDQGDYFYVVEKGTVDFYVNDNKVNSSGPGSSFGELALMYNSPRAATVVATSDCLLWALDRLTFRKILLGSSFKKRLMYDDLLKSMPVLKSLTTYDRAKLADALDTKIYQPGETIIREGDQGENFYLIEYGAVDVSKKGQGVINKLKDHDYFGEVALLNDLPRQATVTATKRTKVATLGKSGFQRLLGPAVDVLKLNDPTRH

binding [3]: binds
B2: Bcy1 (yeast PKA regulatory subunit), Venus PCA fusion (protein, UniProt P07278 1-416)
chain: MVSSLPKESQAELQLFQNEINAANPSDFLQFSANYFNKRLEQQRAFLKAREPEFKAKNIVLFPEPEESFSRPQSAQSQSRSRSSVMFKSPFVNEDPHSNVFKSGFNLDPHEQDTHQQAQEEQQHTREKTSTPPLPMHFNAQRRTSVSGETLQPNNFDDWTPDHYKEKSEQQLQRLEKSIRNNFLFNKLDSDSKRLVINCLEEKSVPKGATIIKQGDQGDYFYVVEKGTVDFYVNDNKVNSSGPGSSFGELALMYNSPRAATVVATSDCLLWALDRLTFRKILLGSSFKKRLMYDDLLKSMPVLKSLTTYDRAKLADALDTKIYQPGETIIREGDQGENFYLIEYGAVDVSKKGQGVINKLKDHDYFGEVALLNDLPRQATVTATKRTKVATLGKSGFQRLLGPAVDVLKLNDPTRH
